{"sequences": {"note": "Amino acid sequences for entries named in this document (tags omitted).", "UniProt Q7XA73": "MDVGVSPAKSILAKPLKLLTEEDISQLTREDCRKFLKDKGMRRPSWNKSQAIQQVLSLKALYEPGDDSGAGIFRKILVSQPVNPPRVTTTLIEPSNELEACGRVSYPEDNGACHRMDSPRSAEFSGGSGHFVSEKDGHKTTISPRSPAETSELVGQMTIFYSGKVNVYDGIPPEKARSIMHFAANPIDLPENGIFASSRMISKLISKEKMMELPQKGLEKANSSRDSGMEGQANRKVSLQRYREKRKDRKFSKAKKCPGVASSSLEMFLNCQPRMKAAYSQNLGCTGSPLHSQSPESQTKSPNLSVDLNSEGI", "UniProt Q8GY55": "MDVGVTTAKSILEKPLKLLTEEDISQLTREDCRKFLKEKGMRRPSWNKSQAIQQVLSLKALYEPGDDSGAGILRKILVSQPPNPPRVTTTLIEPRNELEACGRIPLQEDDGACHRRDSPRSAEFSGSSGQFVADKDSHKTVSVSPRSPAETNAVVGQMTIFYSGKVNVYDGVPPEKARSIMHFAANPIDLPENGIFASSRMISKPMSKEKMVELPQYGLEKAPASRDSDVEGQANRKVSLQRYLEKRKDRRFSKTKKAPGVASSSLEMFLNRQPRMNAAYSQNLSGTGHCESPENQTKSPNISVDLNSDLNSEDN"}, "source": "paper PMC9967580", "molecules": {"B1": {"name": "TIFY8 (full length) fused to one half of the yellow fluorescent protein (BiFC construct) (protein, UniProt Q84MB2 1-361)", "chain": "MMVNHNNGQRPTDIDSRLRQTEQDKLLFHDFLGSKNPTLASTSMADHRLPPDNKAAKAAMTPSTASASSAGGLGGLSSTSDLVERHSGGGNHLDGIQLFGPRSDVSGSIMSNRFSGNKRSNSDSHFTTQEHPETLHWSKLLRNGPGSFSMNVNPLANQPPRGGGQISHLLHQLSTSRFKDENVGPSVIAQTAADEGSRTGMKGPGILSSFTMPNSSKLESFAPSNTGNRKDLASSTKQMTIFYGGQAHVFDDVHPNKADVIMALAGSSGGSWSTGLSHKPKSKNNTSDGPYKLGQMYEGGSSKETPQMPPEFRARPSHQPTSSACHRIFTQPGREHQGSIISRGRDIRDPVHRSDPEKEAT"}, "B2": {"name": "TIFY8-C fused to one half of the yellow fluorescent protein (BiFC construct) (domain or fragment, UniProt Q84MB2 176-361)", "chain": "SRFKDENVGPSVIAQTAADEGSRTGMKGPGILSSFTMPNSSKLESFAPSNTGNRKDLASSTKQMTIFYGGQAHVFDDVHPNKADVIMALAGSSGGSWSTGLSHKPKSKNNTSDGPYKLGQMYEGGSSKETPQMPPEFRARPSHQPTSSACHRIFTQPGREHQGSIISRGRDIRDPVHRSDPEKEAT"}, "B3": {"name": "TIFY8-C1 fused to one half of the yellow fluorescent protein (BiFC construct) (domain or fragment, UniProt Q84MB2 230-361)", "chain": "KDLASSTKQMTIFYGGQAHVFDDVHPNKADVIMALAGSSGGSWSTGLSHKPKSKNNTSDGPYKLGQMYEGGSSKETPQMPPEFRARPSHQPTSSACHRIFTQPGREHQGSIISRGRDIRDPVHRSDPEKEAT"}, "B4": {"name": "TIFY8 full length (1 to 361aa) fused with GAL4-AD (protein, UniProt Q84MB2 1-361)", "chain": "MMVNHNNGQRPTDIDSRLRQTEQDKLLFHDFLGSKNPTLASTSMADHRLPPDNKAAKAAMTPSTASASSAGGLGGLSSTSDLVERHSGGGNHLDGIQLFGPRSDVSGSIMSNRFSGNKRSNSDSHFTTQEHPETLHWSKLLRNGPGSFSMNVNPLANQPPRGGGQISHLLHQLSTSRFKDENVGPSVIAQTAADEGSRTGMKGPGILSSFTMPNSSKLESFAPSNTGNRKDLASSTKQMTIFYGGQAHVFDDVHPNKADVIMALAGSSGGSWSTGLSHKPKSKNNTSDGPYKLGQMYEGGSSKETPQMPPEFRARPSHQPTSSACHRIFTQPGREHQGSIISRGRDIRDPVHRSDPEKEAT"}, "B5": {"name": "GAL4-AD-JAZ4 (protein, UniProt Q58G47 1-310)", "chain": "MERDFLGLGSKLSPITVKEETNEDSAPSRGMMDWSFSSKVGSGPQFLSFGTSQQETRVNTVNDHLLSSAAMDQNQRTYFSSLQEDRVFPGSSQQDQTTITVSMSEPNYINSFINHQHLGGSPIMAPPVSVFPAPTTIRSSSKPLPPQLTIFYAGSVLVYQDIAPEKAQAIMLLAGNGPHAKPVSQPKPQKLVHHSLPTTDPPTMPPSFLPSISYIVSETRSSGSNGVTGLGPTKTKASLASTRNNQTAAFSMAPTVGLPQTRKASLARFLEKRKERVINVSPYYVDNKSSIDCRTLMSECVSCPPAHHLH"}, "B6": {"name": "GAL4-AD-JAZ9 (protein, UniProt Q8W4J8 1-267)", "chain": "MERDFLGLSDKQYLSNNVKHEVNDDAVEERGLSTKAAREWGKSKVFATSSFMPSSDFQEAKAFPGAYQWGSVSAANVFRRCQFGGAFQNATPLLLGGSVPLPTHPSLVPRVASSGSSPQLTIFYGGTISVFNDISPDKAQAIMLCAGNGLKGETGDSKPVREAERMYGKQIHNTAATSSSSATHTDNFSRCRDTPVAATNAMSMIESFNAAPRNMIPSVPQARKASLARFLEKRKERLMSAMPYKKMLLDLSTGESSGMNYSSTSPT"}, "B7": {"name": "GAL4-AD-JAZ10 (protein, UniProt Q93ZM9 1-197)", "chain": "MSKATIELDFLGLEKKQTNNAPKPKFQKFLDRRRSFRDIQGAISKIDPEIIKSLLASTGNNSDSSAKSRSVPSTPREDQPQIPISPVHASLARSSTELVSGTVPMTIFYNGSVSVFQVSRNKAGEIMKVANEAASKKDESSMETDLSVILPTTLRPKLFGQNLEGDLPIARRKSLQRFLEKRKERLVSTSPYYPTSA"}, "B8": {"name": "TIFY8-C (176 to 361aa) fused with GAL4-AD (domain or fragment, UniProt Q84MB2 176-361)", "chain": "SRFKDENVGPSVIAQTAADEGSRTGMKGPGILSSFTMPNSSKLESFAPSNTGNRKDLASSTKQMTIFYGGQAHVFDDVHPNKADVIMALAGSSGGSWSTGLSHKPKSKNNTSDGPYKLGQMYEGGSSKETPQMPPEFRARPSHQPTSSACHRIFTQPGREHQGSIISRGRDIRDPVHRSDPEKEAT"}, "B9": {"name": "TIFY8-C1 (230 to 361aa) fused with GAL4-AD (domain or fragment, UniProt Q84MB2 230-361)", "chain": "KDLASSTKQMTIFYGGQAHVFDDVHPNKADVIMALAGSSGGSWSTGLSHKPKSKNNTSDGPYKLGQMYEGGSSKETPQMPPEFRARPSHQPTSSACHRIFTQPGREHQGSIISRGRDIRDPVHRSDPEKEAT"}, "B10": {"name": "TIFY8-N (1 to 229aa) fused with GAL4-AD (domain or fragment, UniProt Q84MB2 1-229)", "chain": "MMVNHNNGQRPTDIDSRLRQTEQDKLLFHDFLGSKNPTLASTSMADHRLPPDNKAAKAAMTPSTASASSAGGLGGLSSTSDLVERHSGGGNHLDGIQLFGPRSDVSGSIMSNRFSGNKRSNSDSHFTTQEHPETLHWSKLLRNGPGSFSMNVNPLANQPPRGGGQISHLLHQLSTSRFKDENVGPSVIAQTAADEGSRTGMKGPGILSSFTMPNSSKLESFAPSNTGNR"}, "B11": {"name": "TIFY8-N1 (1 to 176aa) fused with GAL4-AD (domain or fragment, UniProt Q84MB2 1-176)", "chain": "MMVNHNNGQRPTDIDSRLRQTEQDKLLFHDFLGSKNPTLASTSMADHRLPPDNKAAKAAMTPSTASASSAGGLGGLSSTSDLVERHSGGGNHLDGIQLFGPRSDVSGSIMSNRFSGNKRSNSDSHFTTQEHPETLHWSKLLRNGPGSFSMNVNPLANQPPRGGGQISHLLHQLSTS"}, "B12": {"name": "TIFY8-C3 (176 to 229aa) fused with GAL4-AD (domain or fragment, UniProt Q84MB2 176-229)", "chain": "SRFKDENVGPSVIAQTAADEGSRTGMKGPGILSSFTMPNSSKLESFAPSNTGNR"}}, "note": "No constants are given. Whether binding was seen depends on the method and setting. For some of these results: Binding seen in cells or lysates may run through a third protein. Some binding calls cover weakened binding; strength is not graded here. Where a sequence is shown, tags or fusion partners need not be part of it.", "data": [{"molecular_target": "T1, REV fused to one half of the yellow fluorescent protein (BiFC construct) (Arabidopsis thaliana) (UniProt Q9SE43)", "T1 sequence": "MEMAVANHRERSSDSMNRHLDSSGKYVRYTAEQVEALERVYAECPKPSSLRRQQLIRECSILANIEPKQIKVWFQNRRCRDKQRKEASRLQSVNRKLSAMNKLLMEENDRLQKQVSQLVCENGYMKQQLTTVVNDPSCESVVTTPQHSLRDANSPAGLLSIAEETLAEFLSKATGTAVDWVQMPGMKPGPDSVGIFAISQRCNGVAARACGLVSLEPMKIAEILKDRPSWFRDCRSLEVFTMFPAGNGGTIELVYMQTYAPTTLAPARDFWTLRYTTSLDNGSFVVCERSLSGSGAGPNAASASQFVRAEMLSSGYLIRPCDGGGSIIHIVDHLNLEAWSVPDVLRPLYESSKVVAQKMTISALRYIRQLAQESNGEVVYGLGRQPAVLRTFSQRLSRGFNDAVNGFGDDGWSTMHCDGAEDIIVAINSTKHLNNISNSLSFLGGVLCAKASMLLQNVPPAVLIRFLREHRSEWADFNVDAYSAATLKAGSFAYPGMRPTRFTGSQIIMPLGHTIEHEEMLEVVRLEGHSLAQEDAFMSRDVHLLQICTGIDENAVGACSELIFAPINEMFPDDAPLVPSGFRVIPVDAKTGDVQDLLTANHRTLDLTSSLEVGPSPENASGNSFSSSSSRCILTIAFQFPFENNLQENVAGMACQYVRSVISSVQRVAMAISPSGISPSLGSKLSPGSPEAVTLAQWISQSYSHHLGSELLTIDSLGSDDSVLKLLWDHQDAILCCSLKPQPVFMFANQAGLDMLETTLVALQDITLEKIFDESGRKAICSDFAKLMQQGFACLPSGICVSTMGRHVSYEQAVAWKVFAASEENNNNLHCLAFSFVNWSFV", "experiment": "split reporter; ratiometric BiFC, both partners and RFP on one vector (pBiFCt-2in1-NN, 35S promoter); Arabidopsis protoplasts read by flow cytometry (CytoFLEX) 1 day after transfection, and Agrobacterium-infiltrated Nicotiana benthamiana leaves read by confocal microscopy 2 days later", "values": [{"molecule": "B1", "binding": "binds"}, {"molecule": "B2", "binding": "binds"}, {"molecule": "B3", "binding": "binds"}]}, {"molecular_target": "T2, GAL4-BD-REV (REVOLUTA fused to the GAL4 DNA-binding domain) (Arabidopsis thaliana) (UniProt Q9SE43)", "T2 sequence": "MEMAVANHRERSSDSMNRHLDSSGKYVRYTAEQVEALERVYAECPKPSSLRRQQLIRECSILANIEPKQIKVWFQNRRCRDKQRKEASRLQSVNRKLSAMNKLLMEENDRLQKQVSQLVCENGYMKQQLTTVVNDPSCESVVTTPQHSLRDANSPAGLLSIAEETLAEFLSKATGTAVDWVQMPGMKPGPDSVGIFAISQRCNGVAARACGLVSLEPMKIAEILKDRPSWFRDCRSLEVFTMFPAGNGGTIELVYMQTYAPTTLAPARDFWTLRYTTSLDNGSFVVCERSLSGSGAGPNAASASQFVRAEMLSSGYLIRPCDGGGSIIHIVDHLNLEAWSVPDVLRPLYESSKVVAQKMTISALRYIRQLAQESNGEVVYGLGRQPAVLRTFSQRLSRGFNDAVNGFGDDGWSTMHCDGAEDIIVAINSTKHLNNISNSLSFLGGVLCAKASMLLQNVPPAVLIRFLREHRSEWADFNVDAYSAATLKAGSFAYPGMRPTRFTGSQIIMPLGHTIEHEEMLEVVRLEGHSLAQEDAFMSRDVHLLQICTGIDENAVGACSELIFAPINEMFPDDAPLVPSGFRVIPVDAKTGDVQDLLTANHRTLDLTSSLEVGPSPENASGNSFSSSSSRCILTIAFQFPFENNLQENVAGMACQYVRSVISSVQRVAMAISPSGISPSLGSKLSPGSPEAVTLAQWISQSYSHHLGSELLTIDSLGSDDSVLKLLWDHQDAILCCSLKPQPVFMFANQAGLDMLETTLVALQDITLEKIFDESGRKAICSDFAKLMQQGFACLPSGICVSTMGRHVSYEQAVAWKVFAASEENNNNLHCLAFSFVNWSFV", "experiment": "two-hybrid; Matchmaker Gold Yeast Two-Hybrid System; bait as GAL4-BD fusion (pGBKT7) in strain Y2H Gold, prey as GAL4-AD fusion (pGADT7) in strain Y187, mated; serial 1:10 dilutions spotted on DDO control and selective media of increasing stringency (TDO, DDO/X/AbA, QDO, QDO/X, QDO/X/AbA); growth after four to five days at 30 °C", "values": [{"molecule": "B4", "binding": "binds"}, {"molecule": "B5", "binding": "binds"}, {"molecule": "B6", "binding": "binds"}, {"molecule": "B7", "binding": "binds"}, {"molecule": "B8", "binding": "binds"}, {"molecule": "B9", "binding": "binds"}, {"molecule": "B10", "binding": "no binding"}, {"molecule": "B11", "binding": "no binding"}, {"molecule": "B12", "binding": "no binding"}]}, {"molecular_target": "T2, GAL4-BD-REV (REVOLUTA fused to the GAL4 DNA-binding domain) (Arabidopsis thaliana)", "experiment": "two-hybrid; Matchmaker Gold Yeast Two-Hybrid System; bait as GAL4-BD fusion (pGBKT7) in strain Y2H Gold, prey as GAL4-AD fusion (pGADT7) in strain Y187, mated; serial 1:10 dilutions spotted on DDO control and selective media of increasing stringency (TDO, DDO/X/AbA, QDO, QDO/X, QDO/X/AbA); growth after four to five days at 30 °C", "remark": "another data set of the same source", "values": [{"molecule": "PEAPOD1 (PPD1) fused with GAL4-AD (from UniProt Q7XA73 1-313)", "binding": "binds"}, {"molecule": "PEAPOD2 (PPD2) full length fused with GAL4-AD (from UniProt Q8GY55 1-315)", "binding": "binds"}]}, {"molecular_target": "T3, GAL4-BD-TIFY8 (Arabidopsis thaliana) (UniProt Q84MB2)", "T3 sequence": "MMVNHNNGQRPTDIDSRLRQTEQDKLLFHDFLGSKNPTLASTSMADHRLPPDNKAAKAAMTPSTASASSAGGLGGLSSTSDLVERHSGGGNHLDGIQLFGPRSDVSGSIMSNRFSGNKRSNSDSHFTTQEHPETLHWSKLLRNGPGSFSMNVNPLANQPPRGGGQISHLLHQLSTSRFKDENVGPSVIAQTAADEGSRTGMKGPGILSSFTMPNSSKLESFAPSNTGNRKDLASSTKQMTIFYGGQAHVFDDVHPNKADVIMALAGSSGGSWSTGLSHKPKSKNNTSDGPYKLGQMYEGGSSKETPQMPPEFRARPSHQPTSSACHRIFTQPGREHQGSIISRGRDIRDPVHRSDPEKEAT", "experiment": "two-hybrid; Matchmaker Gold Yeast Two-Hybrid System; bait as GAL4-BD fusion (pGBKT7) in strain Y2H Gold, prey as GAL4-AD fusion (pGADT7) in strain Y187, mated; serial 1:10 dilutions spotted on DDO control and selective media of increasing stringency (TDO, DDO/X/AbA, QDO, QDO/X, QDO/X/AbA); growth after four to five days at 30 °C", "values": [{"molecule": "PEAPOD1 (PPD1) fused with GAL4-AD (from UniProt Q7XA73 1-313)", "binding": "binds"}, {"molecule": "PEAPOD2 (PPD2) full length fused with GAL4-AD (from UniProt Q8GY55 1-315)", "binding": "binds"}]}]}
